PMC10818380 (Pharmaceutics, 2024)

Test: general procedure: Fmoc solid-phase peptide synthesis; 2-chlorotrityl chloride resin (1.6 mmol Cl-/g); HBTU/DIPEA; HATU/DIPEA for Onc112
Conditions: conjugation step, TFA

Row | Substance | conjugation yield
1 | Fmoc-Arg(Pbf)Arg(Pbf)IleArg(Pbf)ProArg(Pbf)ProProTyr(tBu)Leu-C2-TPP | 81%
2 | Fmoc-Arg(Pbf)Arg(Pbf)IleArg(Pbf)ProArg(Pbf)ProProTyr(tBu)Leu-C10-TPP | 39%
3 | PEPTIDE1{[BODIPY-FL-C3].R.R.I.R.P.R.P.P.R.L}$$$$V2.0 | 31%

HELM strings list residues between dots; [ac] is acetyl, [am] amide, other brackets name non-standard units.
